Source: patent publication US9957546B2, “Vivo detection of phospholipase activation” (THE TRUSTEES OF THE UNIVERSITY OF PENNSYLVANIA, priority 2008, dated 2018)

Test system: DU145 prostate cells
Experiment: Cell uptake and in situ activation, laser confocal microscopy
Type: cell-based, human
Conditions: 5 μM, 1 hr

`C=Cc1c(C)c2cc3nc(c4c5[nH]c(cc6nc(cc1[nH]2)C(C)=C6CC)c(C)c5C(=O)C4)C(CCC(=O)OC(COC(=O)CCCCCCCCCCCCCCC)COP(=O)(O)OCCN)C3C` (stereo not shown) [Pyro-PL] was tested, and the “subcellular localization of fluorescence” value was “primarily cytoplasmic; also recorded: localizes primarily in cytoplasm”.

“Also recorded” adds a separate entry of the source.
